Source: the supplement of paper PMC11438910
This is one part of the list. Only a few entries rise above the background.

Legend:
Test in all cases: fluorescence intensity of antibody binding to polysaccharide-coupled beads; higher = stronger binding
[1] = molecular target: pneumococcal polysaccharide Pn11F
[2] = molecular target: pneumococcal polysaccharide Pn12A
[3] = molecular target: pneumococcal polysaccharide Pn12B
[4] = molecular target: pneumococcal polysaccharide Pn12F
[5] = molecular target: pneumococcal polysaccharide Pn13
[6] = molecular target: pneumococcal polysaccharide Pn14
[7] = molecular target: pneumococcal polysaccharide Pn15A
[8] = molecular target: pneumococcal polysaccharide Pn15B
[9] = molecular target: pneumococcal polysaccharide Pn15C
[10] = molecular target: pneumococcal polysaccharide Pn15F
[11] = molecular target: pneumococcal polysaccharide Pn16A
[12] = molecular target: pneumococcal polysaccharide Pn16F
[13] = molecular target: pneumococcal polysaccharide Pn17A
[14] = molecular target: pneumococcal polysaccharide Pn17F
[15] = molecular target: pneumococcal polysaccharide Pn18A
[16] = molecular target: pneumococcal polysaccharide Pn18B
[17] = molecular target: pneumococcal polysaccharide Pn18C
[18] = molecular target: pneumococcal polysaccharide Pn18F
[19] = molecular target: pneumococcal polysaccharide Pn19A
[20] = molecular target: pneumococcal polysaccharide Pn19B
[21] = molecular target: pneumococcal polysaccharide Pn19C
[22] = molecular target: pneumococcal polysaccharide Pn19F
[23] = molecular target: pneumococcal polysaccharide Pn2
[24] = antibody concentration 2.8593 ng/mL
[25] = antibody concentration 15.2894 ng/mL
[26] = antibody concentration 81.7561 ng/mL
[27] = antibody concentration 437.17 ng/mL
[28] = antibody concentration 2337.65 ng/mL
[29] = antibody concentration 12500 ng/mL
[30] = antibody concentration 0.1 ng/mL
[31] = antibody concentration 0.534724 ng/mL

B1: 4-80.4 (protein)
chain 1: QVQLQESGPGLVKPSETLSLTCAVSGGSFSSYWWSWIRQSPGKGLEWIGEISGNSGSTNYNPSLKSRVTISKDASKNQFSLKLSSVTAADTAVYYCARYKEYWGQGVLVTVSS
chain 2: DVVMTQSPLSLLITPGQPASISCRSSQSLVHSNGNTYLSWYQQKPGQPPRRLLYEVSNRDSGVPDRFSGSGAGTDFTLKISRVEAEDVGVYYCGQGTHLPYSFGQGTKVEIK
fluorescence intensity [1, 24]: 13.8 MFI
fluorescence intensity [1, 25]: 14.8 MFI
fluorescence intensity [1, 26]: 13 MFI
fluorescence intensity [1, 27]: 15.5 MFI
fluorescence intensity [1, 28]: 16.5 MFI
fluorescence intensity [1, 29]: 19.5 MFI
fluorescence intensity [2, 30]: 16 MFI
fluorescence intensity [2, 31]: 15.5 MFI
fluorescence intensity [2, 24]: 15.5 MFI
fluorescence intensity [2, 25]: 15.5 MFI
fluorescence intensity [2, 26]: 15 MFI
fluorescence intensity [2, 27]: 15.5 MFI
fluorescence intensity [2, 28]: 17 MFI
fluorescence intensity [2, 29]: 24.5 MFI
fluorescence intensity [3, 30]: 14 MFI
fluorescence intensity [3, 31]: 15.8 MFI
fluorescence intensity [3, 24]: 14.5 MFI
fluorescence intensity [3, 25]: 15.8 MFI
fluorescence intensity [3, 26]: 15.5 MFI
fluorescence intensity [3, 27]: 16 MFI
fluorescence intensity [3, 28]: 16.5 MFI
fluorescence intensity [3, 29]: 26 MFI
fluorescence intensity [4, 30]: 18.5 MFI
fluorescence intensity [4, 31]: 19 MFI
fluorescence intensity [4, 24]: 18.8 MFI
fluorescence intensity [4, 25]: 18 MFI
fluorescence intensity [4, 26]: 18 MFI
fluorescence intensity [4, 27]: 18 MFI
fluorescence intensity [4, 28]: 21.5 MFI
fluorescence intensity [4, 29]: 32.2 MFI
fluorescence intensity [5, 30]: 19 MFI
fluorescence intensity [5, 31]: 18.5 MFI
fluorescence intensity [5, 24]: 19 MFI
fluorescence intensity [5, 25]: 19.8 MFI
fluorescence intensity [5, 26]: 19 MFI
fluorescence intensity [5, 27]: 18.8 MFI
fluorescence intensity [5, 28]: 19.5 MFI
fluorescence intensity [5, 29]: 27.5 MFI
fluorescence intensity [6, 30]: 14.5 MFI
fluorescence intensity [6, 31]: 14 MFI
fluorescence intensity [6, 24]: 13.5 MFI
fluorescence intensity [6, 25]: 13 MFI
fluorescence intensity [6, 26]: 14.5 MFI
fluorescence intensity [6, 27]: 15 MFI
fluorescence intensity [6, 28]: 17.8 MFI
fluorescence intensity [6, 29]: 61.2 MFI
fluorescence intensity [7, 30]: 12.5 MFI
fluorescence intensity [7, 31]: 12.5 MFI
fluorescence intensity [7, 24]: 13 MFI
fluorescence intensity [7, 25]: 13.5 MFI
fluorescence intensity [7, 26]: 12.5 MFI
fluorescence intensity [7, 27]: 13.5 MFI
fluorescence intensity [7, 28]: 13 MFI
fluorescence intensity [7, 29]: 15 MFI
fluorescence intensity [8, 30]: 18 MFI
fluorescence intensity [8, 31]: 17 MFI
fluorescence intensity [8, 24]: 17.5 MFI
fluorescence intensity [8, 25]: 18.8 MFI
fluorescence intensity [8, 26]: 18.5 MFI
fluorescence intensity [8, 27]: 19.8 MFI
fluorescence intensity [8, 28]: 20 MFI
fluorescence intensity [8, 29]: 26 MFI
fluorescence intensity [9, 30]: 16 MFI
fluorescence intensity [9, 31]: 18.5 MFI
fluorescence intensity [9, 24]: 17.2 MFI
fluorescence intensity [9, 25]: 18.5 MFI
fluorescence intensity [9, 26]: 16.5 MFI
fluorescence intensity [9, 27]: 17.5 MFI
fluorescence intensity [9, 28]: 19 MFI
fluorescence intensity [9, 29]: 21.5 MFI
fluorescence intensity [10, 30]: 17 MFI
fluorescence intensity [10, 31]: 16.5 MFI
fluorescence intensity [10, 24]: 17.5 MFI
fluorescence intensity [10, 25]: 17.2 MFI
fluorescence intensity [10, 26]: 16.5 MFI
fluorescence intensity [10, 27]: 18 MFI
fluorescence intensity [10, 28]: 17.5 MFI
fluorescence intensity [10, 29]: 23.8 MFI
fluorescence intensity [11, 30]: 13.8 MFI
fluorescence intensity [11, 31]: 14.5 MFI
fluorescence intensity [11, 24]: 14.2 MFI
fluorescence intensity [11, 25]: 15.5 MFI
fluorescence intensity [11, 26]: 13.5 MFI
fluorescence intensity [11, 27]: 15 MFI
fluorescence intensity [11, 28]: 16.5 MFI
fluorescence intensity [11, 29]: 20.5 MFI
fluorescence intensity [12, 30]: 24.5 MFI
fluorescence intensity [12, 31]: 23.5 MFI
fluorescence intensity [12, 24]: 25.5 MFI
fluorescence intensity [12, 25]: 23.2 MFI
fluorescence intensity [12, 26]: 24 MFI
fluorescence intensity [12, 27]: 26.5 MFI
fluorescence intensity [12, 28]: 28 MFI
fluorescence intensity [12, 29]: 33.5 MFI
fluorescence intensity [13, 30]: 21.5 MFI
fluorescence intensity [13, 31]: 20.8 MFI
fluorescence intensity [13, 24]: 20.5 MFI
fluorescence intensity [13, 25]: 22.5 MFI
fluorescence intensity [13, 26]: 21.8 MFI
fluorescence intensity [13, 27]: 22 MFI
fluorescence intensity [13, 28]: 21.5 MFI
fluorescence intensity [13, 29]: 23.5 MFI
fluorescence intensity [14, 30]: 26.8 MFI
fluorescence intensity [14, 31]: 26.5 MFI
fluorescence intensity [14, 24]: 26 MFI
fluorescence intensity [14, 25]: 26.5 MFI
fluorescence intensity [14, 26]: 25.5 MFI
fluorescence intensity [14, 27]: 27.2 MFI
fluorescence intensity [14, 28]: 28 MFI
fluorescence intensity [14, 29]: 29.5 MFI
fluorescence intensity [15, 30]: 24.5 MFI
fluorescence intensity [15, 31]: 24 MFI
fluorescence intensity [15, 24]: 23.5 MFI
fluorescence intensity [15, 25]: 23.2 MFI
fluorescence intensity [15, 26]: 23.5 MFI
fluorescence intensity [15, 27]: 24 MFI
fluorescence intensity [15, 28]: 24.5 MFI
fluorescence intensity [15, 29]: 27.5 MFI
fluorescence intensity [16, 30]: 30 MFI
fluorescence intensity [16, 31]: 31.5 MFI
fluorescence intensity [16, 24]: 30.5 MFI
fluorescence intensity [16, 25]: 31 MFI
fluorescence intensity [16, 26]: 30.5 MFI
fluorescence intensity [16, 27]: 31.5 MFI
fluorescence intensity [16, 28]: 34.5 MFI
fluorescence intensity [16, 29]: 39 MFI
fluorescence intensity [17, 30]: 18 MFI
fluorescence intensity [17, 31]: 19.5 MFI
fluorescence intensity [17, 24]: 17.5 MFI
fluorescence intensity [17, 25]: 18.5 MFI
fluorescence intensity [17, 26]: 19 MFI
fluorescence intensity [17, 27]: 18.5 MFI
fluorescence intensity [17, 28]: 21.8 MFI
fluorescence intensity [17, 29]: 32 MFI
fluorescence intensity [18, 30]: 22.8 MFI
fluorescence intensity [18, 31]: 22.5 MFI
fluorescence intensity [18, 24]: 24 MFI
fluorescence intensity [18, 25]: 22.5 MFI
fluorescence intensity [18, 26]: 24 MFI
fluorescence intensity [18, 27]: 23.5 MFI
fluorescence intensity [18, 28]: 27.5 MFI
fluorescence intensity [18, 29]: 33.5 MFI
fluorescence intensity [19, 30]: 18 MFI
fluorescence intensity [19, 31]: 18.5 MFI
fluorescence intensity [19, 24]: 18.2 MFI
fluorescence intensity [19, 25]: 18 MFI
fluorescence intensity [19, 26]: 19.5 MFI
fluorescence intensity [19, 27]: 19 MFI
fluorescence intensity [19, 28]: 19 MFI
fluorescence intensity [19, 29]: 24.5 MFI
fluorescence intensity [20, 30]: 28 MFI
fluorescence intensity [20, 31]: 30 MFI
fluorescence intensity [20, 24]: 29 MFI
fluorescence intensity [20, 25]: 28 MFI
fluorescence intensity [20, 26]: 30 MFI
fluorescence intensity [20, 27]: 31 MFI
fluorescence intensity [20, 28]: 36.5 MFI
fluorescence intensity [20, 29]: 90.2 MFI
fluorescence intensity [21, 30]: 26 MFI
fluorescence intensity [21, 31]: 25.5 MFI
fluorescence intensity [21, 24]: 25.8 MFI
fluorescence intensity [21, 25]: 26.5 MFI
fluorescence intensity [21, 26]: 25.8 MFI
fluorescence intensity [21, 27]: 26 MFI
fluorescence intensity [21, 28]: 28.5 MFI
fluorescence intensity [21, 29]: 65.5 MFI
fluorescence intensity [22, 30]: 24.5 MFI
fluorescence intensity [22, 31]: 26 MFI
fluorescence intensity [22, 24]: 25.5 MFI
fluorescence intensity [22, 25]: 24.5 MFI
fluorescence intensity [22, 26]: 25.8 MFI
fluorescence intensity [22, 27]: 26.2 MFI
fluorescence intensity [22, 28]: 28 MFI
fluorescence intensity [22, 29]: 38.5 MFI
fluorescence intensity [23, 30]: 20 MFI
fluorescence intensity [23, 31]: 19 MFI
fluorescence intensity [23, 24]: 20 MFI
fluorescence intensity [23, 25]: 20 MFI
fluorescence intensity [23, 26]: 20.5 MFI
fluorescence intensity [23, 27]: 18.8 MFI
